Experimental data: PubChem BioAssay AID1224826 (NIAID, 2016)
Test: 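Genes that change LPS-induced Tnf promoter activity in mouse macrophages when knocked down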 (primary screen). Cell system: RAW264.7 G9 macrophages from mouse bearing reporters for p65 (GFP) and the Tnf promoter (mCherry). Knock-down reagent: siRNA pool against mouse genes, 100 nM. Timing: 16 h of LPS stimulation, after 2 days of siRNA transfection. Conditions: bacterial lipopolysaccharide (Salmonella minnesota R595), 10 ng/ml. Read-out: 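Imaged Tnf reporter mCherry in nuclei, minus background, normalised per plate to the median and expressed as robust z-scores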. Reading the numbers: Tnf reporter robust z-score: higher = stronger Tnf promoter reporter signal after LPS; Tnf reporter intensity: higher = stronger Tnf promoter reporter signal. Active means: 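a well counts as active at a score of -1.3 or below (Tlr4 knock-down control median) or above 3 (raised signal); controls and wells holding fewer than 50 cells are excluded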. Calls: active = Tnf reporter clearly lowered or raised; inactive = no clear change in Tnf reporter.
This is one part, drawn at random, of about 17,000 reagents tested. About 1,110 of all reagents (6.6%) were called active. 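Active means lowered or raised reporter signal; replicate intensities are raw and not normalised per plate.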 Some reagents were tested in more than one well and are listed for each.

target	Tnf reporter robust z-score	fewer than 50 cells in well	Tnf reporter intensity, replicate 1	Tnf reporter intensity, replicate 2	Call
Dpysl3 (GeneID 22240)	-0.79	enough cells in well	140	82.9	inactive
Nmbr (GeneID 18101)	2.06	enough cells in well	338	184	inactive
Spata2l (GeneID 78779)	0.33	enough cells in well	275	138	inactive
Or4a75 (GeneID 258787)	1.21	enough cells in well	268	160	inactive
Dusp16 (GeneID 70686)	-0.86	enough cells in well	188	123	inactive
Or2t26 (GeneID 258877)	0.08	enough cells in well	188	123	inactive
H2bc18 (GeneID 319189)	-1.1	enough cells in well	168	94.8	inactive
Tfap2b (GeneID 21419)	-0.8	enough cells in well	172	56.8	inactive
Plxna2 (GeneID 18845)	1.06	enough cells in well	181	70.9	inactive
Shisa7 (GeneID 232813)		fewer than 50 cells per well; well left out of calls	72.4	183	inactive
Ssrp1 (GeneID 20833)	-0.72	enough cells in well	192	179	inactive
Herpud1 (GeneID 64209)	-0.16	enough cells in well	231	173	inactive
Or5b102 (GeneID 258687)	-0.71	enough cells in well	124	101	inactive
Kcna5 (GeneID 16493)	0.13	enough cells in well	253	155	inactive
Crb3 (GeneID 224912)	0.42	enough cells in well	231	180	inactive
Bgn (GeneID 12111)	-0.98	enough cells in well	79.6	133	inactive
Gstt2 (GeneID 14872)	0.68	enough cells in well	324	282	inactive
Zfp367 (GeneID 238673)	-1.4	enough cells in well	58	74.1	active
Tomm6 (GeneID 66119)	2.49	enough cells in well	478	143	inactive
Sult1d1 (GeneID 53315)	-0.16	enough cells in well	61.3	86.9	inactive
Lrrtm2 (GeneID 107065)	0.73	enough cells in well	276	149	inactive
Ero1a (GeneID 50527)	0.59	enough cells in well	230	326	inactive
Slc6a20b (GeneID 22599)	1.04	enough cells in well	136	108	inactive
Iqcg (GeneID 69707)		fewer than 50 cells per well; well left out of calls	121	94.1	inactive
Swi5 (GeneID 72931)		fewer than 50 cells per well; well left out of calls	204	68.6	inactive
Or5b120 (GeneID 258691)	-0.34	enough cells in well	150	114	inactive
Nup155 (GeneID 170762)	0.03	enough cells in well	185	155	inactive
Zfand2a (GeneID 100494)	-0.07	enough cells in well	195	119	inactive
Pla2g4a (GeneID 18783)	-0.15	enough cells in well	269	152	inactive
Unc45a (GeneID 101869)	0.48	enough cells in well	228	163	inactive
Pcdha5 (GeneID 12941)	0.79	enough cells in well	211	145	inactive
Cidec (GeneID 14311)	1.2	enough cells in well	260	250	inactive
Mpzl2 (GeneID 14012)	-1.28	enough cells in well	150	71.4	inactive
Adra2b (GeneID 11552)	-0.21	enough cells in well	192	287	inactive
Arrb1 (GeneID 109689)	0.71	enough cells in well	252	392	inactive
Agk (GeneID 69923)	0.92	enough cells in well	171	280	inactive
Agk (GeneID 69923)		fewer than 50 cells per well; well left out of calls	278	102	inactive
Sp6 (GeneID 83395)		fewer than 50 cells per well; well left out of calls	0	300	inactive
Arhgap24 (GeneID 231532)	0.35	enough cells in well	201	175	inactive
Papss2 (GeneID 23972)	0.72	enough cells in well	184	255	inactive
G6pc3 (GeneID 68401)	0.85	enough cells in well	339	295	inactive
Tex11 (GeneID 83558)	1.17	enough cells in well	143	132	inactive
Pex14 (GeneID 56273)	0.23	enough cells in well	248	205	inactive
Zfp521 (GeneID 225207)	1.41	enough cells in well	183	185	inactive
Vta1 (GeneID 66201)	-0.95	enough cells in well	195	27.1	inactive
Or4a66 (GeneID 258456)	-0.66	enough cells in well	156	109	inactive
Prtg (GeneID 235472)		fewer than 50 cells per well; well left out of calls	69.5	55.8	inactive
Zc3h3 (GeneID 223642)	0.44	enough cells in well	178	103	inactive
Med23 (GeneID 70208)	-0.61	enough cells in well	200	148	inactive
Snx3 (GeneID 54198)	1.97	enough cells in well	201	134	inactive
H1f1 (GeneID 80838)	-0.05	enough cells in well	208	184	inactive
Defa20 (GeneID 68009)		fewer than 50 cells per well; well left out of calls	142	22.7	inactive
Acss1 (GeneID 68738)	0.18	enough cells in well	215	203	inactive
Ints6 (GeneID 18130)	-0.45	enough cells in well	193	178	inactive
Ppp1r16b (GeneID 228852)	0.27	enough cells in well	316	168	inactive
Rgs3 (GeneID 50780)	-1.02	enough cells in well	207	49.8	inactive
Col8a2 (GeneID 329941)		fewer than 50 cells per well; well left out of calls	0	97.8	inactive
Trim35 (GeneID 66854)	-1.31	enough cells in well	67.7	10.9	active

As entered above:
Adra2b (GeneID 11552), Tnf reporter robust z-score: -0.21
For “fewer than 50 cells in well”, Zc3h3 (GeneID 223642) is entered as enough cells in well
Result for Ero1a (GeneID 50527) under “fewer than 50 cells in well”: enough cells in well
Iqcg (GeneID 69707), Tnf reporter intensity, replicate 1: 121
For “Tnf reporter intensity, replicate 2”, Sult1d1 (GeneID 53315) reads 86.9
Under “Tnf reporter intensity, replicate 2”, Or4a75 (GeneID 258787) has 160
